Patent publication US20110283604A1, “BIODEGRADATION OF RENEWABLE HYDROCARBON FUEL BLENDS” (BUTAMAX(TM) ADVANCED BIOFUELS LLC, priority 2010, published 2011)

Test system: soil-groundwater slurries
Assay: Anaerobic microcosm biodegradation (nitrate-reducing to methanogenic)
Conditions: for concentration after approximately 300 days of incubation: sulfate-reducing

SMILES	concentration after approximately 300 days of incubation (Treatment 13, low concentration, with isobutanol, detection limit) [µM]	concentration after approximately 300 days of incubation (Treatment 14, low concentration, with ethanol)	biodegradation throughout 162 days of incubation (higher BTEX concentration treatments without isobutanol, any anaerobic conditions)	time to degradation below detection limits (high concentration, without alcohols, nitrate-reducing, iron-reducing and sulfate-reducing conditions) [days]	biodegradation relative to the controls (unamended high concentration microcosms (Treatment 2))
c1ccccc1 [Benzene, benzene]	< 0.50	approximately 0.85 μM	no substantial benzene biodegradation	–	–
Cc1ccccc1 [Toluene, toluene]	–	–	–	≤ 80	no measurable toluene concentration decreasing trend
